Measurements published in the supplement of paper PMC4604168 (melanoma cell lines).
The list shows a part of the results. Repeats are few or missing, and single values can be far off.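 The apoptosis fraction was the count of cleaved-PARP antibody-stained nuclei relative to all DNA-stained nuclei, imaged in 1,536-well plates. Screening doses were set so most cells survived, and baseline and induced cleaved-PARP levels vary greatly across cell lines.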

Tests used:
Assay in all cases: cleaved PARP positive nuclei fraction relative to DMSO control; melanoma cells; higher = more apoptosis
Settings in all cases: library dose: low library concentration; 72 h
[1] = system: 501Mel
[2] = system: A101D
[3] = system: A2058
[4] = system: A375
[5] = system: C32
[6] = system: CBRC008 (line from a melanoma biopsy)
[7] = system: CBRC013 (line from a melanoma biopsy)
[8] = system: CBRC014 (line from a melanoma biopsy)
[9] = system: CBRC016 (line from a melanoma biopsy)
[10] = system: CBRC017 (line from a melanoma biopsy)
[11] = system: COLO792
[12] = system: COLO800
[13] = system: COLO829
[14] = system: G361
[15] = system: IPC-298
[16] = system: IST-MEL1
[17] = system: LB2518-MEL
[18] = system: LOXIMVI
[19] = system: MEL-HO
[20] = system: CBRC034 (line from a melanoma biopsy)

SMILES	cleaved PARP positive nuclei fraction [1]	cleaved PARP positive nuclei fraction [2]	cleaved PARP positive nuclei fraction [3]	cleaved PARP positive nuclei fraction [4]	cleaved PARP positive nuclei fraction [5]	cleaved PARP positive nuclei fraction [6]	cleaved PARP positive nuclei fraction [7]	cleaved PARP positive nuclei fraction [8]	cleaved PARP positive nuclei fraction [9]	cleaved PARP positive nuclei fraction [10]	cleaved PARP positive nuclei fraction [11]	cleaved PARP positive nuclei fraction [12]	cleaved PARP positive nuclei fraction [13]	cleaved PARP positive nuclei fraction [14]	cleaved PARP positive nuclei fraction [15]	cleaved PARP positive nuclei fraction [16]	cleaved PARP positive nuclei fraction [17]	cleaved PARP positive nuclei fraction [18]	cleaved PARP positive nuclei fraction [19]	cleaved PARP positive nuclei fraction [20]
C=CCn1c(=O)c2cnc(Nc3ccc(N4CCN(C)CC4)cc3)nc2n1-c1cccc(C(C)(C)O)n1 + Cc1ccc(NC(=O)c2cccc(N(C)C)c2)cc1NC(=O)c1ccc(O)cc1 [ZM336372] (first compound 0.02 µM, partner dose 2 µM)	268%	101%	20.4%	314%	89.2%	171%	120%	148%	99.5%	73.2%	87.4%	39.6%	152%	80.5%	217%	47.7%	53.2%	41%	161%	
C=CCNC1=C2C[C@@H](C)C[C@H](OC)[C@H](O)[C@@H](C)/C=C(\C)[C@H](OC(N)=O)[C@@H](OC)/C=C\C=C(/C)C(=O)NC(=CC1=O)C2=O [Tanespimycin] + OCc1c[nH]c2ccccc12 [Indole-3-carbinol] (first compound 0.002 µM, partner dose 0.8 µM)	342%	92.4%	221%	71.6%	119%	63.8%		107%	175%	104%	106%	154%	59.3%	83.6%	45.6%	161%	105%	31.5%	253%	67.8%
Cn1c(Nc2ccc(C(F)(F)F)cc2)nc2cc(Oc3ccnc(-c4ncc(C(F)(F)F)[nH]4)c3)ccc21 + CO[C@@H]1[C@H](N(C)C(=O)c2ccccc2)C[C@H]2O[C@]1(C)n1c3ccccc3c3c4c(c5c6ccccc6n2c5c31)C(=O)NC4 [Midostaurin] (first compound 0.08 µM, partner dose 0.08 µM)	130%	190%	140%	254%	177%	75.8%	89.9%	77.8%	189%	194%	581%	73.8%	87.3%	153%	108%	113%	88.9%	196%	262%	
OCc1c[nH]c2ccccc12 [Indole-3-carbinol] + C[C@]1(c2nc3c(C(N)=O)cccc3[nH]2)CCCN1 [Veliparib] (first compound 0.8 µM, partner dose 1.4 µM)	146%	238%	193%	107%	103%	184%		83.3%	73.4%	114%	82.2%	37.3%	104%	91.1%	207%	62.8%	211%	102%	48%	85.7%
CC(=O)c1c(C)c2cnc(Nc3ccc(N4CCNCC4)cn3)nc2n(C2CCCC2)c1=O [palbociclib] + Cc1nc(Nc2ncc(C(=O)Nc3c(C)cccc3Cl)s2)cc(N2CCN(CCO)CC2)n1 [dasatanib] (first compound 0.04 µM, partner dose 0.004 µM)	119%	61.9%	157%	217%	183%	117%		134%	32.2%	119%	259%	18.8%	160%	236%	95.9%	71.4%	270%	1880%	67.2%	80.2%
Cn1c(Nc2ccc(C(F)(F)F)cc2)nc2cc(Oc3ccnc(-c4ncc(C(F)(F)F)[nH]4)c3)ccc21 + C[C@]1(c2nc3c(C(N)=O)cccc3[nH]2)CCCN1 [Veliparib] (first compound 0.08 µM, partner dose 1.4 µM)	210%	80.3%	159%	220%	109%	127%		114%	152%	96.9%	247%	100%	96.7%	246%	74.8%	63.4%	502%	235%	305%	67.9%
Nc1cccc2c1CN(C1CCC(=O)NC1=O)C2=O (centres undefined) [lenalidomide] + C[C@]1(c2nc3c(C(N)=O)cccc3[nH]2)CCCN1 [Veliparib] (first compound 1 µM, partner dose 1.4 µM)	88.6%	44.1%	109%	183%	78.4%	92.5%		88.8%	79.7%	116%	88.7%	132%	143%	96.4%	172%	31.1%	240%	152%	34.2%	176%
Clc1ccc(Nc2nnc(Cc3ccncc3)c3ccccc23)cc1 [vatalanib] + COCC[n+]1c2c(n(Cc3cnccn3)c1C)C(=O)c1ccccc1C2=O [YM155] (first compound 2 µM, partner dose 0.0004 µM)	174%	153%	187%	168%	84.6%	90.5%		115%	244%	106%	108%	51.5%	72.9%	120%	88.3%	180%	105%	115%	52.8%	80.7%
OCc1c[nH]c2ccccc12 [Indole-3-carbinol] + Cn1nnc2c(C(N)=O)ncn2c1=O [temozolomide] (first compound 0.8 µM, partner dose 2 µM)	136%	97.6%	83.7%	59.5%	91.1%	41%		122%	178%	95.6%	145%	151%	89.1%	125%	125%	201%	103%	145%	41.8%	87.7%
Clc1ccc(Nc2nnc(Cc3ccncc3)c3ccccc23)cc1 [vatalanib] + Cn1c(Nc2ccc(C(F)(F)F)cc2)nc2cc(Oc3ccnc(-c4ncc(C(F)(F)F)[nH]4)c3)ccc21 [CHIR265] (first compound 2 µM, partner dose 0.08 µM)	131%	84.4%	227%	158%	87.7%	76.2%		165%	121%	129%	153%	73%	97.2%	180%	84.2%	76.8%	150%	312%	64.5%	35.2%
C=CCNC1=C2C[C@@H](C)C[C@H](OC)[C@H](O)[C@@H](C)/C=C(\C)[C@H](OC(N)=O)[C@@H](OC)/C=C\C=C(/C)C(=O)NC(=CC1=O)C2=O [Tanespimycin] + Clc1ccc(Nc2nnc(Cc3ccncc3)c3ccccc23)cc1 [vatalanib] (first compound 0.002 µM, partner dose 2 µM)	88.6%	122%	142%	53.1%	170%	263%		128%	322%	265%	126%	96.9%	63.8%	144%	230%	40.6%	121%	93.3%	133%	69%
CC(C)(C)c1cnc(CSc2cnc(NC(=O)C3CCNCC3)s2)o1 + C[C@@H]1CCN(C(=O)CC#N)C[C@@H]1N(C)c1ncnc2[nH]ccc12 [CP690550] (first compound 0.01 µM, partner dose 1 µM)	85.5%	161%	122%	104%	90.6%	180%	131%	80.9%	182%	76.5%	185%	141%	207%	74.4%	90.5%	48.7%	91.4%	51.8%	60.3%	
CC(=O)c1c(C)c2cnc(Nc3ccc(N4CCNCC4)cn3)nc2n(C2CCCC2)c1=O [palbociclib] + COc1ccc(Cl)c(Nc2nc3ccccc3nc2NS(=O)(=O)c2cccc(NC(=O)C(C)(C)N)c2)c1 [XL147] (first compound 0.04 µM, partner dose 0.8 µM)	240%	58.6%	99.4%	116%	97.3%	295%		127%	153%	140%	67.1%	84.9%	175%	132%	97.3%	326%	123%	218%	148%	181%
Nc1cccc2c1CN(C1CCC(=O)NC1=O)C2=O (centres undefined) [lenalidomide] + Cn1nnc2c(C(N)=O)ncn2c1=O [temozolomide] (first compound 1 µM, partner dose 2 µM)	71.3%	102%	57.9%	138%	75.9%	128%		95.6%	106%	103%	88.4%	159%	118%	144%	79.6%	129%	96%	128%	63.5%	50.8%
Cc1nc(Nc2ncc(C(=O)Nc3c(C)cccc3Cl)s2)cc(N2CCN(CCO)CC2)n1 [dasatanib] + Nc1cccc2c1CN(C1CCC(=O)NC1=O)C2=O [lenalidomide] (first compound 0.004 µM, partner dose 1 µM)	84.9%	144%	477%	141%	84.8%	119%		93.3%	51.2%	112%	146%	77.5%	124%	101%	87.3%	103%	116%	168%	160%	93.4%
OCc1c[nH]c2ccccc12 [Indole-3-carbinol] + C[C@@H]1CCN(C(=O)CC#N)C[C@@H]1N(C)c1ncnc2[nH]ccc12 [CP690550] (first compound 0.8 µM, partner dose 1 µM)	95.1%	77%	88.8%	126%	125%	105%	113%	77.8%	246%	88.2%	103%	75.5%	37%	80.6%	29.5%	94.7%	103%	157%	60.2%	

Pulled one by one from the entries so far, 2 records:
SMILES	cleaved PARP positive nuclei fraction [1]	cleaved PARP positive nuclei fraction [2]	cleaved PARP positive nuclei fraction [3]	cleaved PARP positive nuclei fraction [4]	cleaved PARP positive nuclei fraction [5]	cleaved PARP positive nuclei fraction [6]	cleaved PARP positive nuclei fraction [7]	cleaved PARP positive nuclei fraction [8]	cleaved PARP positive nuclei fraction [9]	cleaved PARP positive nuclei fraction [10]	cleaved PARP positive nuclei fraction [11]	cleaved PARP positive nuclei fraction [12]	cleaved PARP positive nuclei fraction [13]	cleaved PARP positive nuclei fraction [14]	cleaved PARP positive nuclei fraction [15]	cleaved PARP positive nuclei fraction [16]	cleaved PARP positive nuclei fraction [17]	cleaved PARP positive nuclei fraction [18]	cleaved PARP positive nuclei fraction [19]	cleaved PARP positive nuclei fraction [20]
C=CCn1c(=O)c2cnc(Nc3ccc(N4CCN(C)CC4)cc3)nc2n1-c1cccc(C(C)(C)O)n1 + Cc1ccc(NC(=O)c2cccc(N(C)C)c2)cc1NC(=O)c1ccc(O)cc1 [ZM336372] (first compound 0.02 µM, partner dose 2 µM)	268%	101%	20.4%	314%	89.2%	171%	120%	148%	99.5%	73.2%	87.4%	39.6%	152%	80.5%	217%	47.7%	53.2%	41%	161%	
Cc1nc(Nc2ncc(C(=O)Nc3c(C)cccc3Cl)s2)cc(N2CCN(CCO)CC2)n1 [dasatanib] + Nc1cccc2c1CN(C1CCC(=O)NC1=O)C2=O [lenalidomide] (first compound 0.004 µM, partner dose 1 µM)	84.9%	144%	477%	141%	84.8%	119%		93.3%	51.2%	112%	146%	77.5%	124%	101%	87.3%	103%	116%	168%	160%	93.4%
